Reference: patent publication US5281581A, “Treatment of insulin resistance” (Amylin Pharmaceuticals, Inc., priority 1992, dated 1994)
Entries after “also recorded” stand apart in the source; their conditions may differ. At least one peptide structure holds a part that was inferred or is arguable (an end, a ring closure or a residue). Some entries repeat one wording, which the source may state once for all of them. Where a SMILES comes first, the peptide text is derived from it. Bridges are numbered along the chain shown (N, C = ends). Where no end group is shown, it is not given here.

Experiments:
[1] = tested on: rat soleus muscle; experiment: rate of glycogen synthesis (14C-glucose incorporation into glycogen) in isolated rat soleus muscle strips; settings: isolated rat skeletal muscle in vitro, data not shown
[2] = tested on: rat muscle cells; experiment: amylin antagonist reduction of glycogen synthesis inhibition (amylin plus ser2, ser7 amylin 1-16); type: cell-based; settings: for Rltv Antg Effect (percentage by which relative insulin resistance is reduced from amylin alone) / Rltv Insulin Resist / GLYCOGEN SYNTHESIS Mean Value: insulin 100 μU/ml
[3] = tested on: rat islets of Langerhans; experiment: glucose-stimulated insulin secretion by isolated islets of Langerhans; type: cell-based; settings: glucose 10 mmol/L
Description: All experiments were performed by known methods used in experimental practice. See, e.g., Lacey P. E., and Kostianovsky M, Method for the isolation of intact islets of Langerhans from the rat pancreas. Diabetes 1967; 16: 35-39.
Briefly, rats were killed, and islets of Langerhans were isolated from their pancreases. Experiments were performed either with freshly isolated islets or after overnight incubation of islets (23 h) in standard culture medium and conditions at 37° C. […] Incubation of islets for these experiments was carried out in standard Krebs-Heinsleit buffer, and it was verified that the addition of the 1.0 mmol/L citrate buffer had no effect on the pH of the incubation medium. Stimulation of islets was carried out at the standard stimulatory glucose concentration of 10 mmol/L.
Production of insulin is expressed as μU/islet/h. All experiments were performed with five replicates per point. The integrity of the islet response was assessed by comparing the responses after stimulation of different aliquots of islets by two and ten mmol/L glucose, respectively, and the strength of the inhibitory response was judged against that induced by 1 μg/ml (650 nmol/L) somatostatin. […] See Arimura A. Biomed res 1981; 2: 233-257. […] See Petterson M., Ahren B., Bottcher G., Sundler F., Endocrinology 1986; 119: 865-869.
The results are shown in TABLE 5 below and all results are expressed as ± standard error of the mean (s.e.m.). The significance of differences between the means of groups is assessed by the t-test. The result of stimulation by 10 mmol/L glucose is compared with the results of stimulation at 2 mmol/L glucose. In all other experimental conditions, the significance of the inhibitory effect is measured against the effect of 10 mmol/L glucose alone.

[4] = Experiment #1, amylin 0.2 nmol/L plus antagonist 10,000
[5] = Experiment #2, amylin 2.0 nmol/L plus antagonist 10,000

CC(C)C[C@H](NC(=O)[C@H](Cc1ccccc1)NC(=O)[C@H](CC(N)=O)NC(=O)[C@H](C)NC(=O)[C@H](CC(C)C)NC(=O)[C@H](CCCNC(=N)N)NC(=O)[C@H](CCC(N)=O)NC(=O)[C@@H](NC(=O)[C@H](C)NC(=O)[C@H](CS)NC(=O)[C@@H](NC(=O)[C@H](C)NC(=O)[C@@H](NC(=O)[C@H](CC(N)=O)NC(=O)[C@H](CS)NC(=O)[C@@H](N)CCCCN)[C@@H](C)O)[C@@H](C)O)[C@@H](C)O)C(=O)O [subpeptide [4], Amylin 1-16, reduced] (H-KCNTATCATQRLANFL-OH)
activity in reducing the incorporation of radioactive glucose into glycogen (in words) [1]: significant activity was present; also recorded: activity in reducing the incorporation of radioactive glucose into glycogen was demonstrated

KSNTATSATQRLANFL [ser^2, ser^7 amylin 1-16]
Rltv Antg Effect (percentage by which relative insulin resistance is reduced from amylin alone) [2, 4]: 24% | Rltv Insulin Resist [2, 4]: 22% | GLYCOGEN SYNTHESIS Mean Value ([2]; Experiment #1, amylin 0.2 nmol/L plus antagonist 10,000 (10^-5 mol/L)): 2.22 mol/h/g | Rltv Antg Effect (percentage by which relative insulin resistance is reduced from amylin alone) [2, 5]: 38% | Rltv Insulin Resist [2, 5]: 20% | GLYCOGEN SYNTHESIS Mean Value ([2]; Experiment #2, amylin 2.0 nmol/L plus antagonist 10,000 (10^-5 mol/L)): 2.63 mol/h/g | effect on insulin resistance / inhibition of glycogen synthesis produced by amylin (in words) ([2]; isolated skeletal muscle, insulin 100 uU/mL, antagonist 10^-5 mol/L): capable of partially ameliorating the insulin resistance produced by amylin alone; also recorded: ameliorates the amylin effect in muscle | activity in reducing the incorporation of radioactive glucose into glycogen (in words) ([1]; listed as [7]): Activity was absent

CC(C)C[C@H](NC(=O)[C@H](Cc1ccccc1)NC(=O)[C@H](CC(N)=O)NC(=O)[C@H](C)NC(=O)[C@H](CC(C)C)NC(=O)[C@H](CCCNC(=N)N)NC(=O)[C@H](CCC(N)=O)NC(=O)[C@@H](NC(=O)[C@H](C)NC(=O)[C@@H]1CSSC[C@H](NC(=O)[C@@H](N)CCCCN)C(=O)N[C@@H](CC(N)=O)C(=O)N[C@@H]([C@@H](C)O)C(=O)N[C@@H](C)C(=O)N[C@@H]([C@@H](C)O)C(=O)N1)[C@@H](C)O)C(=O)O [subpeptide [3]] (H-KCNTATCATQRLANFL-OH; disulfide 2-7)
activity in reducing the incorporation of radioactive glucose into glycogen (in words) [1]: significant activity was present; also recorded: activity in reducing the incorporation of radioactive glucose into glycogen was demonstrated

LSSTNVGSNTY [Amylin 27-37]
INSULIN PRODUCTION Mean Value ([3]; substance 10 nmol/L): 45 μU/islet/hr | RELATIVE INSULIN SECRETION INHIBITION ([3]; substance 10 nmol/L): 44% | INSULIN PRODUCTION Mean Value ([3]; substance 100 nmol/L): 48 μU/islet/hr | RELATIVE INSULIN SECRETION INHIBITION ([3]; substance 100 nmol/L): 40% | INSULIN PRODUCTION Mean Value ([3]; substance 1000 nmol/L): 65 μU/islet/hr | RELATIVE INSULIN SECRETION INHIBITION ([3]; substance 1000 nmol/L): 19% | inhibition of glucose stimulated insulin secretion (in words) ([3]; isolated rat islet): potent inhibitor of glucose stimulated insulin secretion | activity in reducing the incorporation of radioactive glucose into glycogen (in words) ([1]; listed as [6]): Activity was absent
